Among the data in article doi:10.1101/2021.12.16.472925 are binding values, retold here.

Protein sequences, listed by entry. Tags and fused reporters are not part of them.
UniProt P23787: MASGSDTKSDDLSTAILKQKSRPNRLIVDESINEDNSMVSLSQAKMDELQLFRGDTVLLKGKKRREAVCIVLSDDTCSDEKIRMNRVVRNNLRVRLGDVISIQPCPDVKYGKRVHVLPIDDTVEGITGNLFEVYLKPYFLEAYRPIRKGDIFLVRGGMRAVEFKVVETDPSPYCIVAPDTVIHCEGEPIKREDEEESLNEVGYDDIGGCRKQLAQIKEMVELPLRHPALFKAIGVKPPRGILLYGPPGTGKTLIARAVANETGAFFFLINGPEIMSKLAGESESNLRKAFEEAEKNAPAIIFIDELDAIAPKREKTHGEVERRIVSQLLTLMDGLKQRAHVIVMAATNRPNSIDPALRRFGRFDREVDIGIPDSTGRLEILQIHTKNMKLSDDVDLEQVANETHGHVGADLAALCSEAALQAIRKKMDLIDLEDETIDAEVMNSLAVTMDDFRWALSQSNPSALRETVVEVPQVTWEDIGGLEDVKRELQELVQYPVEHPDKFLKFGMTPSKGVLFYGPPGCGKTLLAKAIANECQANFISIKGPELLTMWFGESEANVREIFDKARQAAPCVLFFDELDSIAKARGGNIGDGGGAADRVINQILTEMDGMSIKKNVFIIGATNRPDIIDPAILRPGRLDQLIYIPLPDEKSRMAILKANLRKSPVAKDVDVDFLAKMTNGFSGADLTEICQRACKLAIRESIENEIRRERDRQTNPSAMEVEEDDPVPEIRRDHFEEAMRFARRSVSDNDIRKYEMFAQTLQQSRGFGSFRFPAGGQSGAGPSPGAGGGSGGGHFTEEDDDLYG
UniProt Q9YHZ6: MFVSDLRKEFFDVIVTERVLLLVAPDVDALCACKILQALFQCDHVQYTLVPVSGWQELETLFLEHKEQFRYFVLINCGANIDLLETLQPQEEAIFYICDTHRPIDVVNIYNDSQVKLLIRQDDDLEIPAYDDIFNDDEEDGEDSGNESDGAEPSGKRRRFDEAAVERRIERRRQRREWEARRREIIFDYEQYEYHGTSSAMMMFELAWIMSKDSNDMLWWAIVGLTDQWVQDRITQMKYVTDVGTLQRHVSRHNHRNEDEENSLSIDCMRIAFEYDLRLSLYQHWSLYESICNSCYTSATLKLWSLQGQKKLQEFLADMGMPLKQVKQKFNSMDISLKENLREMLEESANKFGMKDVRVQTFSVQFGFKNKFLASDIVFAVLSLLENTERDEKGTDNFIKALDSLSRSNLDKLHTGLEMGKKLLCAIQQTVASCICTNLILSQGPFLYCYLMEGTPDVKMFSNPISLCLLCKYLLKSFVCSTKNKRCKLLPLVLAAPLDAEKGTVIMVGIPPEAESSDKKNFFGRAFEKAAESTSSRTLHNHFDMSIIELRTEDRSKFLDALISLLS

Results are given in words; binding and its absence hold for the method and conditions named. In cells and extracts the contact can be indirect. Some binding calls cover weakened binding; strength is not graded here.

In the assay the target is p97 segregase (Xenopus laevis (endogenous in egg extract)) (UniProt P23787). Kind of assay: co-IP.

Consider Cdc45 (from UniProt Q9YHZ6 1-567), for which the binding entry is “binds weakly”.
